We go through 25 compounds from the supplement of paper PMC12024529.

In assay [1] the test system is HEK293 WT BDD-FVIII-Gluc. Nature of the assay: secreted FVIII-Gluc luciferase Z-score vs DMSO control; higher = more FVIII-Gluc secretion. To be noted: 5 µM; 24 h.
Assay [2] has as its system HEK293 p.N1941S BDD-FVIII-Gluc. Described as above. The note with it: 5 µM; 24 h.

Counter-ions that a name gives are not always drawn. The list shows a part of the results. Part of the spread comes from offsets between plates or batches.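 HEK293 lines stably express B-domain-deleted factor VIII fused to Gaussia luciferase, wild type or a misfolding-prone missense mutant. Scores equal triplicate-well mean luminescence minus DMSO mean, divided by DMSO standard deviation; scores of 2 or higher are hits. Low scores may indicate reduced secretion or worse cell viability.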

Regarding `Nc1ncn([C@H]2C[C@H](O)[C@@H](CO)O2)c(=O)n1` [Decitabine], the “secreted FVIII-Gluc luciferase Z-score” value in assay [1] is inactive: 0.57; in assay [2], inactive: -1.28.

Regarding `CCCNC(C)C(=O)Nc1ccccc1C` (stereo not given) [Prilocaine], the “secreted FVIII-Gluc luciferase Z-score” value in assay [1] was inactive: -1.04; in assay [2] it was inactive: 0.215.

`Cc1cn([C@H]2C=C[C@@H](CO)O2)c(=O)[nH]c1=O` [Stavudine]: the “secreted FVIII-Gluc luciferase Z-score” value was inactive: -0.716 in assay [1] and inactive: -1.97 in assay [2].

For `Cc1ccc(Nc2nccc(N(C)c3ccc4c(C)n(C)nc4c3)n2)cc1S(N)(=O)=O` [Pazopanib HCl], the “secreted FVIII-Gluc luciferase Z-score” value is inactive: -2.71 in assay [1] and inactive: -9.09 in assay [2].

Take `CN(C)CCCN1c2ccccc2Sc2ccc(Cl)cc21` [Chlorpromazine (Sonazine)]: the “secreted FVIII-Gluc luciferase Z-score” value is inactive: 1.04 in assay [1] and inactive: -1.86 in assay [2].

With `NC(CO)(CO)CO` [Trometamol], the “secreted FVIII-Gluc luciferase Z-score” value in assay [1] is active: 2.09; in assay [2], inactive: 0.806.

Turning to `CC(=O)OCC(CCn1cnc2cnc(N)nc21)COC(C)=O` [Famciclovir (Famvir)], the figures for the “secreted FVIII-Gluc luciferase Z-score” value in assay [1] and in assay [2] were inactive: 0.29 and inactive: -6.43, respectively.

On to `C#C[C@]1(O)CC[C@H]2[C@@H]3CCc4cc(OC)ccc4[C@H]3CC[C@@]21C` [Mestranol], for which the “secreted FVIII-Gluc luciferase Z-score” value in assay [1] is inactive: 0.928; in assay [2] it was inactive: -0.0232.

In the case of `O=C1[C@H](CC[C@H](O)c2ccc(F)cc2)[C@@H](c2ccc(O)cc2)N1c1ccc(F)cc1` [Ezetimibe (Zetia)], the “secreted FVIII-Gluc luciferase Z-score” value was inactive: -3.22 in assay [1] and inactive: -1.6 in assay [2].

Turning to `Cc1ncc([N+](=O)[O-])n1CC(O)CCl` (stereo not given) [Ornidazole], the “secreted FVIII-Gluc luciferase Z-score” value in assay [1] was inactive: -1.11; in assay [2], inactive: 0.315.

Regarding `Nc1c2ccccc2nc2ccccc12` [9-Aminoacridine], the entries for the “secreted FVIII-Gluc luciferase Z-score” value in assay [1] and in assay [2] were inactive: 1.53 and active: 3.36, respectively.

Consider `Clc1ccc(CSC(Cn2ccnc2)c2ccc(Cl)cc2Cl)cc1` (stereo not given) [Sulconazole Nitrate], for which the “secreted FVIII-Gluc luciferase Z-score” value in assay [1] was inactive: -1.85; in assay [2], inactive: -0.893.

Regarding `O=C(Nc1ccccc1)OCC(CN1CCCCC1)OC(=O)Nc1ccccc1` (stereo not given) [Diperodon HCl], the entries for the “secreted FVIII-Gluc luciferase Z-score” value in assay [1] and in assay [2] were inactive: -0.754 and inactive: 0.928, respectively.

In the case of `C=CC[C@@H]1/C=C(\C)C[C@H](C)C[C@H](OC)[C@H]2O[C@@](O)(C(=O)C(=O)N3CCCC[C@H]3C(=O)O[C@H](/C(C)=C/[C@@H]3CC[C@@H](O)[C@H](OC)C3)[C@H](C)[C@@H](O)CC1=O)[C@H](C)C[C@@H]2OC` [FK-506 (Tacrolimus)], the “secreted FVIII-Gluc luciferase Z-score” value is inactive: -3.11 in assay [1] and inactive: -1.43 in assay [2].

As to `CSc1nc2cc(Cl)c(Oc3cccc(Cl)c3Cl)cc2[nH]1` [Triclabendazole], the “secreted FVIII-Gluc luciferase Z-score” value is inactive: 0.349 in assay [1] and inactive: 0.46 in assay [2].

For the compound `OCCOCCN1CCN(C(c2ccccc2)c2ccc(Cl)cc2)CC1` (stereo not given) [Hydroxyzine 2HCl], the “secreted FVIII-Gluc luciferase Z-score” value in assay [1] was inactive: -0.986; in assay [2], inactive: -0.611.

Regarding `C[C@H]1C[C@@H]2[C@H]([C@@H](O)C[C@@]3(C)[C@H]2CC[C@]3(O)C(=O)CO)[C@@]2(C)C=CC(=O)C=C12` [Methylprednisolone], the results for the “secreted FVIII-Gluc luciferase Z-score” value in assay [1] and in assay [2] were active: 4.99 and active: 5.64, respectively.

For the compound `CCOc1nc2cccc(C(=O)OC(C)OC(=O)OC3CCCCC3)c2n1Cc1ccc(-c2ccccc2-c2nn[nH]n2)cc1` (stereo not given) [Candesartan cilexetil (Atacand)], the “secreted FVIII-Gluc luciferase Z-score” value in assay [1] was active: 2.67; in assay [2] it was inactive: -1.63.

With `Cc1c(Nc2ncccc2C(=O)O)cccc1C(F)(F)F` [Flunixin meglumin], the “secreted FVIII-Gluc luciferase Z-score” value in assay [1] was inactive: -1.3; in assay [2] it was inactive: -1.15.

Regarding `COc1cccc2c1C(=O)c1c(O)c3c(c(O)c1C2=O)C[C@@](O)(C(C)=O)C[C@@H]3O[C@H]1C[C@H](N)[C@H](O)[C@H](C)O1` [Daunorubicin HCl (Daunomycin HCl)], the entries for the “secreted FVIII-Gluc luciferase Z-score” value in assay [1] and in assay [2] were inactive: -10.8 and inactive: -2.44, respectively.

For `Cc1c(OCC(F)(F)F)ccnc1C[S+]([O-])c1nc2ccccc2[nH]1` (stereo not given) [Lansoprazole], the “secreted FVIII-Gluc luciferase Z-score” value in assay [1] was inactive: -5.8; in assay [2] it was inactive: -0.965.

Take `O=C(Oc1ccccc1C(=O)O)c1ccccc1O` [Sasapyrine]: the “secreted FVIII-Gluc luciferase Z-score” value in assay [1] is inactive: -4.14; in assay [2], inactive: 0.856.

As to `COc1cc2nc(N3CCN(C(=O)C4COc5ccccc5O4)CC3)nc(N)c2cc1OC` (stereo not given) [Doxazosin mesylate], the results for the “secreted FVIII-Gluc luciferase Z-score” value in assay [1] and in assay [2] were inactive: -5.51 and inactive: -0.423, respectively.

Take `CCOc1nc2cccc(C(=O)OCc3oc(=O)oc3C)c2n1Cc1ccc(-c2ccccc2-c2noc(=O)[nH]2)cc1` [Azilsartan Medoxomil (TAK-491)]: the figures for the “secreted FVIII-Gluc luciferase Z-score” value in assay [1] and in assay [2] were inactive: -1.54 and inactive: -0.632, respectively.

In the case of `Cc1c(OCC(F)(F)F)ccnc1C[S@@+]([O-])c1nc2ccccc2[nH]1` [Dexlansoprazole], the “secreted FVIII-Gluc luciferase Z-score” value in assay [1] was active: 3.38; in assay [2], inactive: -0.236.
